{"source": "PubChem BioAssay AID493036", "about": "(Sanford-Burnham Center for Chemical Genomics, 2011)", "note": "The list shows a part of the results. Some results for these compounds are left out of this collection, so the calls shown say nothing about other tests.", "data": [{"experiment": "agonists of NTR1, primary screen, imaging, U2OS cells, beta-arrestin-GFP, high content (AID 493036) (AID 493036)", "details": "NTR1-U2OS beta-arrestin-GFP spot imaging, agonist mode; measured here: cell count, cytotoxicity flag; at 20 µM", "units": {"cell count": "cells"}, "values": [{"smiles": "O=C(OC1CN2CCC1CC2)C(CO)(c1ccccc1)c1ccccc1", "note": "(centres undefined)", "cell count": 38}, {"smiles": "COc1ccc(Br)c(C(=O)NCC2(N3CCCCC3)CCCCC2)c1", "cell count": 69}, {"smiles": "CN(C)c1cccc(C(=O)NCC2(N(C)C)CCCCC2)c1", "cell count": 41}, {"smiles": "CC(C)Oc1ccc(C(=O)NCC2(N(C)C)CCCCC2)cc1", "cell count": 74}, {"smiles": "CN(C)C1(CNC(=O)c2ccc(Br)cc2)CCCCC1", "cell count": 88}, {"smiles": "COc1cc(C(=O)NCC2(N(C)C)CCCCC2)c([N+](=O)[O-])cc1OC", "cell count": 91}, {"smiles": "COc1ccc(Cl)cc1C(=O)NCC1(N(C)C)CCCCC1", "cell count": 94}, {"smiles": "COc1cccc(C(=O)NCC2(N3CCCCC3)CCCCC2)c1", "cell count": 60}, {"smiles": "O=C(NCC1(N2CCCCC2)CCCCC1)c1cccc(Cl)c1", "cell count": 57}, {"smiles": "CN(C)c1ccc(C(=O)NCC2(N(C)C)CCCCC2)cc1", "cell count": 44}, {"smiles": "CN(C)C1CCCC1OC(=O)C(O)(c1ccccc1)c1ccccc1", "note": "(centres undefined)", "cell count": 50}, {"smiles": "Cc1ccccc1C(=O)NCC1(N2CCCCC2)CCCCC1", "cell count": 43}, {"smiles": "O=C(NCC1(N2CCCCC2)CCCCC1)c1cc(F)c(F)cc1Cl", "cell count": 54}, {"smiles": "C=CCN1CCN(CCOC(=O)C(O)(c2ccccc2)c2ccccc2)CC1", "cell count": 50}, {"smiles": "O=C(NCC1(N2CCCCC2)CCCCC1)c1cccc(Br)c1", "cell count": 36}, {"smiles": "CCN1CCCC(OC(=O)C2(O)c3ccccc3C=Cc3ccccc32)C1", "note": "(centres undefined)", "cell count": 67}, {"smiles": "Cc1cc(C(=O)NCC2(N3CCCCC3)CCCCC2)ccc1[N+](=O)[O-]", "cell count": 52}, {"smiles": "COc1ccc(C(=O)NCC2(N(C)C)CCCCC2)cc1", "cell count": 49}, {"smiles": "O=C(NCC1(N2CCCCC2)CCCCC1)c1cc([N+](=O)[O-])ccc1Cl", "cell count": 52}, {"smiles": "CN1[C@@H]2CC[C@H]1CC(OC(=O)C(O)(c1ccccc1)c1ccccc1)C2", "note": "(some centres undefined)", "cell count": 59}, {"smiles": "CC(C)N1C(=O)CC2(CCN(CCOC(=O)C(O)(c3ccccc3)c3ccccc3)CC2)C1=O", "cell count": 39}, {"smiles": "COc1cc(SC)ccc1C(=O)NCC1(N(C)C)CCCCC1", "cell count": 90}, {"smiles": "CCN(CC)CC(C)C(C)OC(=O)C(O)(c1ccccc1)c1ccccc1", "note": "(centres undefined)", "cell count": 55}, {"smiles": "Cc1ccc(C(=O)NCC2(N3CCCCC3)CCCCC2)cc1", "cell count": 56}]}]}
